## Primary screen of a compound library

The chains behind the UniProt entries cited, without tags or fusion partners.
UniProt E9BF75, entry or part of it: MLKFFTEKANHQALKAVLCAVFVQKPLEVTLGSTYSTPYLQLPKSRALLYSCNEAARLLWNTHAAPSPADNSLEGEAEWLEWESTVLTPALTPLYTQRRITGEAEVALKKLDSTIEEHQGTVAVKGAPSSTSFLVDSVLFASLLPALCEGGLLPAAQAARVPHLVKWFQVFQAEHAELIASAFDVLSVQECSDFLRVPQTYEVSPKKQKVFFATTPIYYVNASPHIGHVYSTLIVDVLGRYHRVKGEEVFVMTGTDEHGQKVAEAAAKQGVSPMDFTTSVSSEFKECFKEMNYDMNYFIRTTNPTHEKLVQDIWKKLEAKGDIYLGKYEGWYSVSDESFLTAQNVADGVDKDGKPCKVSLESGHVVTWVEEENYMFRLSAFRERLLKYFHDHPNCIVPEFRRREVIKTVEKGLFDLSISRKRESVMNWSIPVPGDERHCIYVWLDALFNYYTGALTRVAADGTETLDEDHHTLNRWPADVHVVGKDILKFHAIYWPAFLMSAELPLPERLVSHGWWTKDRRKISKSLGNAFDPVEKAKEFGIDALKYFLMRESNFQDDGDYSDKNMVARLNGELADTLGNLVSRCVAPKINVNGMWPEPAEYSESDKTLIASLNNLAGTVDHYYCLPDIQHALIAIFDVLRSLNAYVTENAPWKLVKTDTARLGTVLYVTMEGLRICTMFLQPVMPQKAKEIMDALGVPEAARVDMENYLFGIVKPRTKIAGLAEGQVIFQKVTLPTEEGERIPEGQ

Mtb heat-shock: 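Assay on Mycobacterium tuberculosis, filed only as a heat shock assay from Cornell; the read-out is not stated. The concentration is filed as 10 mM, unlikely as a test dose, so the dose is not known. Higher reads as stronger inhibition (inferred: compounds with an IC50 in retests scored well above the rest). About 69,000 compounds were tested under these conditions; 1.4% (about 930) showed 50% or more at least once.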
LdMetRS: 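Primary screen of methionyl-tRNA synthetase; the read-out is not stated. Target: Methionyl-tRNA synthetase (putative), Leishmania donovani (UniProt E9BF75). The test concentration is not given. The values are filed as inhibition. Size under these conditions: about 68,000 compounds, about 24 of them at 50% or above in at least one test.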
Mtb growth Cornell: 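Whole-cell assay for inhibitors of Mycobacterium tuberculosis growth, labelled Cornell in the record; the read-out is not stated. The concentration is filed as 10 mM, unlikely as a test dose, so the dose is not known. The record gives no direction; compounds strong in two other growth screens of this library score well above the rest, so higher reads as stronger inhibition. Of about 53,000 compounds tested this way, about 900 (1.7%) reached 50% or more in at least one test.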

Results are percentages, as filed. The controls that fix the scale are not given in the record; negative values are as filed. Compounds were drawn at random from those tested, without regard to their results. A dash means the value is not listed here; it may have been measured.

structure,Mtb heat-shock,LdMetRS,Mtb growth Cornell
COC(=O)N1CCc2ccccc2C1C(=O)NCc1ccco1 (stereo not given),12.19%,13.67%,32.37%
CCN1CCC(CC(=O)NCCc2nc(C)cc(C)n2)CC1,-16.33%,5.962%,-0.114%
CSc1ccccc1CN1C[C@H]2CC[C@@H]1CN(Cc1[nH]cnc1C)C2,-,13.07%,-
OCCNc1nc(NCCc2ccccc2)nc2nccnc12,-16.83%,8.043%,11.82%
CCc1nnc(N[C@H](C)c2cccc(OC)c2)o1,7.398%,17.37%,17.94%
COCCNC(=O)[C@H]1CN(Cc2sccc2C)C[C@H]2OCC[C@@H]12,-,8.125%,-
CCN(CC)Cc1cc(=O)n2c(n1)CN(C(=O)c1ccnnc1)CCC2.O=C(O)C(F)(F)F,-0.2309%,-,6.173%
CC(O)CNC(=O)Nc1ccc(Br)cc1Br (stereo not given),-24.25%,9.747%,-10.31%
CC(C)NC(=O)c1ccc2c(c1)C1(CCN(C(C)C)CC1)C(=O)N2.O=C(O)C(F)(F)F,-33.29%,-,-
CC(C)N(C)Cc1cnc2n1CCN(CCc1ccccc1)C2.O=C(O)C(F)(F)F.O=C(O)C(F)(F)F,0.7406%,-,10.38%
Cn1nc(C2CCCC2)c(-c2ccc3c(c2)OCO3)c1N,-21.45%,21.35%,11.18%
COc1ccccc1[C@@H]1CN(CC(=O)N2CCCCC2)C[C@H]1C(=O)O,12.83%,22.1%,13.14%
CCc1cc(N[C@H]2CC[C@@H](N)CC2)n2nc(C)c(C)c2n1,-24.96%,14.45%,27.92%
Cc1ccc2c(c1)C1(CCNCC1)CC2N1CCOCC1 (stereo not given),-10.29%,3.846%,-2.435%
Cl.O[C@@H]1CN(Cc2cccc(F)c2)CC[C@H]1NCc1ccccn1,14.29%,-,29.65%
CC(C)NC(=O)Nc1ccc(-c2nc(C(C)C)no2)cc1,-12.67%,14.01%,4.897%
O=C(O)C(F)(F)F.O=C1NC2(CCN(c3ncccn3)CC2)CC1c1cccnc1 (stereo not given),1.405%,-,17.89%
Fc1cc(CNCc2ccc3c(c2)CCO3)ccc1N1CCOCC1,-13.28%,11.23%,-
CCOc1cc(/C=C/c2ncc(C(=O)O)s2)cc(Br)c1OC,-14.1%,16.52%,-2.557%
CCNc1cc2c(nn1)CCN(C(=O)C1COc3ccccc3C1)C2 (stereo not given),43.02%,14.34%,47.96%
CCCC(C)C(=O)N1CCC(c2cc(N3CCOCC3)nc(C)n2)CC1 (stereo not given),11.72%,13.74%,-
Cn1cnc2c1C(COCC1CC1)CN(Cc1ccc3c(c1)OCO3)C2 (stereo not given),-,1.905%,-
CCN1CC(CN(C)Cc2nc(-c3ccc(F)cc3)oc2C)CC1=O (stereo not given),-22.9%,12.77%,24.43%
CNC(=O)C1CCCCN1C(=O)c1cn(CCOC)c2ccccc12 (stereo not given),-3.389%,-0.5495%,-
CCN1CCC2(CN(C(=O)N(C)C)CC23CCN(CC2CC2)CC3)C1=O (stereo not given),-,7.222%,-
CN(C1CCN(c2ccccn2)CC1)S(=O)(=O)c1ccccc1F,-9.569%,23.74%,3.288%
O=C(c1ccnnc1)N1CC[C@H]2C[C@H](c3ccncn3)O[C@@H]2C1,-,7.843%,-
CCN(CCn1cccn1)Cc1nc(-c2ccccc2F)oc1C,7.201%,15.93%,7.89%
[H][C@@]12CS(=O)(=O)C[C@]1([H])N(Cc1cnc(C)nc1)CCN2C(=O)CC,-10.27%,-,-19.74%
Cc1ncnc2c1CCN(Cc1cccs1)CC2.O=C(O)C(F)(F)F,-4.332%,-,-11.31%
COc1cc(C(=O)N2CCCC2c2noc(C(C)C)n2)on1 (stereo not given),-5.989%,13.65%,-
Cc1cc(C(=O)N2CCCC2c2nc(O)cc(C(C)C)n2)on1 (stereo not given),4.12%,11.86%,11.6%
Cc1nc(C)c(C(=O)N2CCN(CCOc3ccccc3C)CC2)o1,-20.86%,11.64%,28.89%
NC(=O)C(NC1CCN(CC2CCCCC2)CC1)c1ccccc1 (stereo not given),-191.2%,13.6%,-
[H][C@@]12CN(C(=O)c3ccncc3)C[C@]1([H])OCCN2CCN1CCCC1,-16.55%,-,24.27%
Cc1nnc(N2CCC(CNC(=O)OC(C)(C)C)CC2)c(C#N)c1C,1.009%,2.083%,-
CN(C)S(=O)(=O)c1ccc(CN2CCC(C(N)=O)CC2)o1,10.25%,10.87%,4.859%
CCc1nc(C)sc1CN1CC[C@](O)(CC)[C@H](O)C1,10.56%,23.12%,10.27%
COc1ccc(CN(Cc2cncn2C)CC2CCCO2)cc1OC.O=C(O)CC(O)(CC(=O)O)C(=O)O (stereo not given),-6.379%,-,-21.19%
O=C(O)c1cc(S(=O)(=O)Nc2cccc3c2OCCO3)ccc1F,-10.49%,12.57%,4.992%
Nc1ccnn1C1CCN(Cc2ccccc2)C1 (stereo not given),2.999%,11.46%,0.324%
CCOCC(=O)N1C[C@@H](O)[C@H](N2CCN(c3ccccc3)CC2)C1,-7.866%,17.19%,19.97%
Cc1nnc2n1CCN(CCOc1ccc(C(C)(C)C)cc1)C2,-8.881%,25.5%,25.83%
O=C(CS(=O)(=O)Cc1ccccc1)NC1CCCCNC1=O (stereo not given),-15.33%,9.659%,-
c1ccc(CCCN2CC(n3cccn3)C2)cc1,1.664%,11.75%,18.36%
O=C(CN1CCCC1Cn1cccn1)NCCOc1cccc(F)c1 (stereo not given),8.782%,13.69%,3.43%
CC(C)c1nn(C)c(N(C)C)c1CNCc1ccc2c(c1)OCCO2,17.94%,13.14%,4.339%
Cc1ccoc1C(=O)N(CCN(C)C)Cc1ccccn1,-25.84%,12.5%,36.64%
COc1ccc(CN2CCCC(n3cccn3)C2)c(Cl)c1OC (stereo not given),1.967%,6.806%,0.2024%
Cc1nc2ccccc2nc1NCc1cccc(OCC2CCCO2)c1 (stereo not given),7.892%,6.233%,16.27%
CC(C)c1nccn1CCC(=O)N1CCCC1c1cccn1C (stereo not given),-7.14%,19.93%,25.82%

Repeated from the top, 5 entries:

COC(=O)N1CCc2ccccc2C1C(=O)NCc1ccco1 (stereo not given) gave Mtb heat-shock: 12.19%; LdMetRS: 13.67%; Mtb growth Cornell: 32.37%.
CCN1CCC(CC(=O)NCCc2nc(C)cc(C)n2)CC1 gave Mtb heat-shock: -16.33%; LdMetRS: 5.962%; Mtb growth Cornell: -0.114%.
CSc1ccccc1CN1C[C@H]2CC[C@@H]1CN(Cc1[nH]cnc1C)C2 gave LdMetRS: 13.07%.
OCCNc1nc(NCCc2ccccc2)nc2nccnc12 gave Mtb heat-shock: -16.83%; LdMetRS: 8.043%; Mtb growth Cornell: 11.82%.
CCc1nnc(N[C@H](C)c2cccc(OC)c2)o1 gave Mtb heat-shock: 7.398%; LdMetRS: 17.37%; Mtb growth Cornell: 17.94%.

Data taken from ChEMBL document CHEMBL3988442, “University of Dundee, Small-Polar-MMV Screening Library” (2021).